From patent US20220290149, “METHOD OF DETECTION OF FIBRIN CLOTS” (I-ZUM-X PTY LTD, published 2022) come the findings set out here.

In series [1] the test system is SUBpr1 (subtraction protein + DD minus D protein). The series is described as follows: ELONA. The conditions noted are these: purified native protein, protein details: immobilised, single-stranded DNA.
For series [2], the system named is Mouse plasma-derived blood clot (cross-linked fibrin) (Mus musculus). In words: binding assay. The conditions noted are these: imaging of mouse plasma clots; purified native protein; label: 5' FAM (ELONA and imaging); single-stranded DNA.
The test system of series [3] is Insoluble cross-linked fibrin / plasma-derived blood clot (Homo sapiens). The series is described as follows: binding assay. The conditions noted are these: qPCR-based binding assay; purified native protein; protein details: clot prepared from citrated plasma plus CaCl2; label: 5' FAM (ELONA and imaging); single-stranded DNA.
The test system is the same in series [4]. The series is described as follows: ELONA. As to conditions: purified native protein; protein details: clot prepared from citrated plasma plus CaCl2; label: 5' FAM (ELONA and imaging); single-stranded DNA.
For series [5], the system named is Fibrinogen B beta chain peptide 201-216 (fibrinopeptide). In words: ELONA. The conditions noted are these: enhanced versus negative control aptamer; purified recombinant protein; protein details: 6xHis; label: 5' biotin; single-stranded DNA.
Series [6] has the same test system. The series is described as follows: BLI. As to conditions: purified recombinant protein; protein details: 6xHis; label: 5' biotin; single-stranded DNA.
Series [7] has as its system Immobilised plasma proteins. The series is described as follows: binding assay. The conditions noted are these: qPCR-based assay; purified native protein; protein details: amine-binding plate; label: 5' FAM (ELONA and imaging); single-stranded DNA.

For some of these results: No signal at the amounts used counts as a negative. For some of these results: Construct, isoform or probe ends are uncertain for at least one entry.

Regarding “ACAGTGTGGGCGGGCGGGTGGTTTGGAGCTGGTAGCGGTA [AP10-01]”, in series [1] (no binding pattern, variant of AP10-01-81), the binding result is reported as “no binding”.
Take “GGACAGGACCACACCCAGCGATAATTAGGCATCCGGTCGCCAACCTTGGAGAAACTATCTGGCTCCTGTGTGTCGCTTTGT [RNV605]”: the binding result in series [2] is given as “binds”. For the same sequence, the Kd in series [3] is 85.8 nM; in series [4] it was 0.118 nM.
For the sequence “GGACAGGACCACACCCAGCGACAGTGTGGGCGGGCGGGTGGTTTGGAGCTGGTAGCGGTAGGCTCCTGTGTGTCGCTTTGT [AP10-01-81]”, the binding result in series [1] is recorded as “no binding”.
“GGACAGGACCACACCCAGCGTGGTGGTGAAGAGGTGGGAGGGAGGGCCCCGCGATGGTAAGGCTCCTGTGTGTCGCTTTGT [RNV744]”: the binding result in series [5] is listed as “binds”.
Regarding “GGACAGGACCACACCCAGCGGTGGGGGGGGAGGAGGGTGGGGAGAAGGGTCAATGGTGGTGGCTCCTGTGTGTCGCTTTGT [RNV746]”, the binding result in series [6] was “binds”.
Turning to “GGACAGGACCACACCCAGCGTAATAATATGGGGCTTGCGGTCCCCGATTTTTATGCACACGGCTCCTGTGTGTCGCTTTGT [RNV602]”, the binding result in series [7] is on record as “no binding”; in series [2], “binds”. Further, the Kd stood at 46.1 nM in series [3] and 0.404 nM in series [4].
Regarding “GGACAGGACCACACCCAGCGGGCGGGCGGGGGAGGTGGAGGAAATGTGGGGAATGGGTGCGGCTCCTGTGTGTCGCTTTGT [RNV745]”, in series [5], the binding result is recorded as “binds”.
On to “GGACAGGACCACACCCAGCGGGCGGGCGGGGGAGGTGGAGGAAATGTGGGGAATGGGTACGGCTCCTGTGTGTCGCTTTGT [RNV747]”, for which, in series [6], the binding result is given as “binds”.
